Laboratory results published in publication PMC4869170.

Sequences of proteins named here, by UniProt entry; tags and fusion partners are left off.
UniProt Q92949: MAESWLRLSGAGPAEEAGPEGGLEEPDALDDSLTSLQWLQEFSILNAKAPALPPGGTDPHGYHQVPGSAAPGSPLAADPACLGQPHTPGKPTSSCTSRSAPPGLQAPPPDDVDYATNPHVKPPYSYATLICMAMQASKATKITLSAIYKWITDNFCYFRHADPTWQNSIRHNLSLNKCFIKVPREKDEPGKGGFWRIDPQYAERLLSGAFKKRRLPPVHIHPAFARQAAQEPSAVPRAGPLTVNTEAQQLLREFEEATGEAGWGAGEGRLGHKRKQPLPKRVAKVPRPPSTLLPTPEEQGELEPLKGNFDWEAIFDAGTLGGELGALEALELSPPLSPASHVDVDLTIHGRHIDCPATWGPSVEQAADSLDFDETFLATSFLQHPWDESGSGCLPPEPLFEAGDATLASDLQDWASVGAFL

T1: TTC30B (human) (UniProt Q8N4P2)
T1 sequence: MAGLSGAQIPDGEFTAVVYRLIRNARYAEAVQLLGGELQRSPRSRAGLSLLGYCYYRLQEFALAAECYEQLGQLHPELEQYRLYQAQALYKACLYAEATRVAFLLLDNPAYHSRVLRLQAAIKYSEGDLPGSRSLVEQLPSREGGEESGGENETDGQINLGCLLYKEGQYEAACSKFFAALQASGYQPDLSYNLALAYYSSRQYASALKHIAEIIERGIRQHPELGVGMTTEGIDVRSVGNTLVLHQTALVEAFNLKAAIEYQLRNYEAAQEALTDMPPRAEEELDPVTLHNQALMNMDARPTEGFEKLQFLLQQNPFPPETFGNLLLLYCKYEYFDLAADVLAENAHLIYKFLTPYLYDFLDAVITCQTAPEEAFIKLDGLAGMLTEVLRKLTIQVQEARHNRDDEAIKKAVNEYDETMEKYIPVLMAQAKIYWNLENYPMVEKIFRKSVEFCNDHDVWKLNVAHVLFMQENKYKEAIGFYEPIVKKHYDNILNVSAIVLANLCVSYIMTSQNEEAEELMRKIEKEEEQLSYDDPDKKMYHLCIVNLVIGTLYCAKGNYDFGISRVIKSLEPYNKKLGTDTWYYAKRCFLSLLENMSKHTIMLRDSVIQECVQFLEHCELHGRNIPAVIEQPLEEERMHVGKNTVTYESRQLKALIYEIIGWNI


Experiments:
[1] = biological target: ciliogenesis transcription factor FOXJ1 (human) (UniProt Q92949); assay: affinity purification with mass spectrometry; SF-TAP of tagged baits overexpressed in HEK293T (Strep-Tactin, then anti-FLAG M2 agarose, FLAG peptide elution; lysis 0.5% NP-40 in TBS, 4 °C); LC-MS/MS; interactions scored by socioaffinity (spoke and matrix evidence), FDR/FPR≤0.1
TTC30B (human) = biological target: T1, TTC30B (human); assay: as above

Row | binding [1] | binding (TTC30B (human)) | Binder
1 | binds |  | cilia- and flagella-associated protein 20 (protein, UniProt Q9Y6A4 1-193) MFKNTFQSGFLSILYSIGSKPLQIWDKKVRNGHIKRITDNDIQSLVLEIEGTNVSTTYITCPADPKKTLGIKLPFLVMIIKNLKKYFTFEVQVLDDKNVRRRFRASNYQSTTRVKPFICTMPMRLDDGWNQIQFNLLDFTRRAYGTNYIETLRVQIHANCRIRRVYFSDRLYSEDELPAEFKLYLPVQNKAKQ
2 |  | binds | TMEM41B (protein, UniProt Q5BJD5 1-291) MAKGRVAERSQLGAHHTTPVGDGAAGTRGLAAPGSRDHQKEKSWVEAGSARMSLLILVSIFLSAAFVMFLVYKNFPQLSEEERVNMKVPRDMDDAKALGKVLSKYKDTFYVQVLVAYFATYIFLQTFAIPGSIFLSILSGFLYPFPLALFLVCLCSGLGASFCYMLSYLVGRPVVYKYLTEKAVKWSQQVERHREHLINYIIFLRITPFLPNWFINITSPVINVPLKVFFIGTFLGVAPPSFVAIKAGTTLYQLTTAGEAVSWNSIFILMILAVLSILPAIFQKKLKQKFE

These are yes or no findings as the source states them, for the method shown. In cells and extracts the contact can be indirect. A yes stands for co-enrichment or nearness to the bait. Other partners may have been found. For some assays here: Tags and fused reporters may be left off the sequences shown.
